According to patent publication US20170319645A1:
These are yes or no findings as the source states them, for the method shown. Some entries that bind do so weakly or less than the wild type.

Target: T1, Insulin-degrading enzyme (IDE) (UniProt P14735)
T1 sequence (looked up): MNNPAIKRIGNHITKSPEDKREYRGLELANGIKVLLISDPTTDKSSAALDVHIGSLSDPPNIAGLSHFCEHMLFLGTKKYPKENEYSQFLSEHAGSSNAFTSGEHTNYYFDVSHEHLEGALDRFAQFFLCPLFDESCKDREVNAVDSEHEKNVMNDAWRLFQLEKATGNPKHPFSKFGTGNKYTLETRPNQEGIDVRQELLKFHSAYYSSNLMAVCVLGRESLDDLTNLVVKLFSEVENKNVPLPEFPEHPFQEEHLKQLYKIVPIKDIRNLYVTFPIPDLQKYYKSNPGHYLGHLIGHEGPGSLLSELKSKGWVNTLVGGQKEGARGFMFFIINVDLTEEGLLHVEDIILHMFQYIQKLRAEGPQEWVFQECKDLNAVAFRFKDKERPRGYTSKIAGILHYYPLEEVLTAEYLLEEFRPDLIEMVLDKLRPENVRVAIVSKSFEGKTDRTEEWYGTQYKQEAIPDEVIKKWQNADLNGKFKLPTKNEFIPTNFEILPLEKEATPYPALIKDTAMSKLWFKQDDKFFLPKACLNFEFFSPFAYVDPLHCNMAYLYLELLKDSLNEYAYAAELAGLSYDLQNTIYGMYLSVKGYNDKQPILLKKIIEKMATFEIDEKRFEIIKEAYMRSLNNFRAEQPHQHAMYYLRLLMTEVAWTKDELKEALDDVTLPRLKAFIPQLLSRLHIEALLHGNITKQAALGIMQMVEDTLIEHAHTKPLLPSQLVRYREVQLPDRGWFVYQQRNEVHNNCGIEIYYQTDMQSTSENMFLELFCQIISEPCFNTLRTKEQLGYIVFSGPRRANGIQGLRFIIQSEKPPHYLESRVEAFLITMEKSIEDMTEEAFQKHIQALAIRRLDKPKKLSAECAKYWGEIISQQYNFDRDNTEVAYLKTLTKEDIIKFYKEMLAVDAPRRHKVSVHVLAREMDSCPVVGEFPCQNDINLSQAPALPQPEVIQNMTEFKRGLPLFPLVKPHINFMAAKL
Test: Differential Shift Assay (thermal shift)

| Binder | binding |
| --- | --- |
| MVRIKEGSANKPSDD [PIF mutant 1 (mut1, P6->E6)] | binds |
| MVRGKPGSANKPSDD [PIF mutant 3 (mut3, I4->G4)] | binds |
